The supplement of paper PMC10849652
The list shows a part of the results.

Sequences of proteins named here, by UniProt entry; tags and fusion partners are left off. A change or cut given only in a name is not applied to a line headed by its entry.
UniProt Q499Z4: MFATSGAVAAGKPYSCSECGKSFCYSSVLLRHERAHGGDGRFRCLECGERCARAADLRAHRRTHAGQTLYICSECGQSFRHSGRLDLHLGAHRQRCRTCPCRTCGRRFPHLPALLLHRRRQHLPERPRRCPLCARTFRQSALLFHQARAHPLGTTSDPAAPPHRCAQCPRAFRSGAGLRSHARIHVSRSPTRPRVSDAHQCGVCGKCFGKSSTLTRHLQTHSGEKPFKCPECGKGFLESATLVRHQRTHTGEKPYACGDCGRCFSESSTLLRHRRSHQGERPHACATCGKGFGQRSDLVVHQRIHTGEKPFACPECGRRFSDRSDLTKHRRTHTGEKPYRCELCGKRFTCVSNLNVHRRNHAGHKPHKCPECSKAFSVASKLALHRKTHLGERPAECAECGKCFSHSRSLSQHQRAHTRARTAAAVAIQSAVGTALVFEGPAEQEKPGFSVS
UniProt Q5VV52: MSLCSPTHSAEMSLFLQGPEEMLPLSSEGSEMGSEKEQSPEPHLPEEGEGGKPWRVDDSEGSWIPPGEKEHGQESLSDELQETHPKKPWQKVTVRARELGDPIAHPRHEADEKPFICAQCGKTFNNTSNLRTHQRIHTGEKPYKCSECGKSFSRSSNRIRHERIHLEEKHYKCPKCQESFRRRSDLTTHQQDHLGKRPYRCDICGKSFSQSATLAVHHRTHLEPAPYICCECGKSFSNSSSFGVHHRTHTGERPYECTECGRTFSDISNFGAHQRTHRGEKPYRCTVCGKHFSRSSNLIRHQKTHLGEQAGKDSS
UniProt Q9H7X3: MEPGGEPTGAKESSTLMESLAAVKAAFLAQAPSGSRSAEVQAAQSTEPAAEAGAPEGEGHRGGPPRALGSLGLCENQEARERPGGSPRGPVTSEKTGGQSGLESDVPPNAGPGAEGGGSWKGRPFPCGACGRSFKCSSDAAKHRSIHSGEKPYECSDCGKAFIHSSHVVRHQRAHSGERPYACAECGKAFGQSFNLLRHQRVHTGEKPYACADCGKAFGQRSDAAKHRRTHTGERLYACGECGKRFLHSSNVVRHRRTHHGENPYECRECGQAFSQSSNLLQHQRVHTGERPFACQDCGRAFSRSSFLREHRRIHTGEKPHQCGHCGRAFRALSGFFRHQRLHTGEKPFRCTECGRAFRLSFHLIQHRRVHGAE
UniProt Q9Y5V0: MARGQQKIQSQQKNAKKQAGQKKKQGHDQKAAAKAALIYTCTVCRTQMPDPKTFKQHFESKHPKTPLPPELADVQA
UniProt Q16587: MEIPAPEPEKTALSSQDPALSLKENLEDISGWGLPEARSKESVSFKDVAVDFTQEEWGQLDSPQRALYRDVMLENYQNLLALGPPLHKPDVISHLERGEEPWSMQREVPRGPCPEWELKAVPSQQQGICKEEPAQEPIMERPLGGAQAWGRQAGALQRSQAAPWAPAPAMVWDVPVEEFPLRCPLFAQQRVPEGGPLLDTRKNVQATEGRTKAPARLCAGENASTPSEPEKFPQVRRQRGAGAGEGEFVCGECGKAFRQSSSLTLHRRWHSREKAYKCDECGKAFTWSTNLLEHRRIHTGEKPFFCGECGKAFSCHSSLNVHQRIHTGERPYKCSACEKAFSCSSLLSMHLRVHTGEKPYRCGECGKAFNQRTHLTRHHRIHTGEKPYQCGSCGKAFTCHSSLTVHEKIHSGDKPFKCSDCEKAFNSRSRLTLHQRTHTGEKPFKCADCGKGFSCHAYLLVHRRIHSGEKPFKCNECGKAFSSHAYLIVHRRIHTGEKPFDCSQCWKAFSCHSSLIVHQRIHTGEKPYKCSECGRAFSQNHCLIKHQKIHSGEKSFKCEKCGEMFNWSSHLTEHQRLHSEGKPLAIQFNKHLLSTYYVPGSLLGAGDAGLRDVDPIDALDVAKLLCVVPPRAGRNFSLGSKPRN
UniProt Q9H5H4: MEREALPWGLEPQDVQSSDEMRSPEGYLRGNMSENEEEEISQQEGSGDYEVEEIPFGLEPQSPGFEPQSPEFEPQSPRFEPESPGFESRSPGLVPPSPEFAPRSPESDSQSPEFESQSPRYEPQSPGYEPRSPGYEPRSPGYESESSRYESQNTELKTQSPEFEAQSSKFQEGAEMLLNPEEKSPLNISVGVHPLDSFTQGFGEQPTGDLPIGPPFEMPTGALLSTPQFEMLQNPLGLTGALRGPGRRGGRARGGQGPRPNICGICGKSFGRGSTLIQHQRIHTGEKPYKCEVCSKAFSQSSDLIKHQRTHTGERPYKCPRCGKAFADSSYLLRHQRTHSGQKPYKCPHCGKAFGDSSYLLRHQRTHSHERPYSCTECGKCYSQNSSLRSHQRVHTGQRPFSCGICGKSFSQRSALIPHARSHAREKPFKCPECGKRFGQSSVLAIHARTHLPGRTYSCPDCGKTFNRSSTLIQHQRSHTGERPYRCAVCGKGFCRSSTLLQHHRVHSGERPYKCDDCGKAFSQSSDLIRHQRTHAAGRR
UniProt Q8NDX6: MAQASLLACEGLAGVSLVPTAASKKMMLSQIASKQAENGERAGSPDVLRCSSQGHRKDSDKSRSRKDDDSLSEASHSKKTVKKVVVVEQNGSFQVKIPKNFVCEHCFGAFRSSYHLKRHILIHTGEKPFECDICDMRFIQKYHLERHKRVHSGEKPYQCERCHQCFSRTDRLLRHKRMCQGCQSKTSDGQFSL
UniProt Q96BR6: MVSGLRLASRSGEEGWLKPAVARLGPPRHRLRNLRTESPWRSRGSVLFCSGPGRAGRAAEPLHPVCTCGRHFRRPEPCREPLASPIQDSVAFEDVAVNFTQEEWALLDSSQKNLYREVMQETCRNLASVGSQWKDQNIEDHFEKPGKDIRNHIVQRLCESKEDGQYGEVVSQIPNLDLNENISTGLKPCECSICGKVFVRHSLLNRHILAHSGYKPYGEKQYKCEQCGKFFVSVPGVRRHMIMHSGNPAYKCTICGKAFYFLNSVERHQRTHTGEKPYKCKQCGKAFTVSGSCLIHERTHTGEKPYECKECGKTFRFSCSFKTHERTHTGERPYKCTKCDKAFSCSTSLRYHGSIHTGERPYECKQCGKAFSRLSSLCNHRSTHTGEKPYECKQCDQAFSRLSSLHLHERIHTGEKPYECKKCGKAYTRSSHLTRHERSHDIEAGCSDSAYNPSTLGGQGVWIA
UniProt P0C7X2: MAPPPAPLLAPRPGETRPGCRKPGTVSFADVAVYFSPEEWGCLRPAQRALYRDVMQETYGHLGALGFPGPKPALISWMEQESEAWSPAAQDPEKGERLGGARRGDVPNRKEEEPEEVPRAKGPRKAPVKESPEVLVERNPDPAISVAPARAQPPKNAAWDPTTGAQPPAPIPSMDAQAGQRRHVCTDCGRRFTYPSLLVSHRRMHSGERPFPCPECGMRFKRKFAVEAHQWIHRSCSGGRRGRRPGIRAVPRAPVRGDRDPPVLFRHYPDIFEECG

Assays:
Assay in all cases: log2 fold change, soluble protein after heating vs DMSO (PISA); higher = thermal stabilisation; K562 cells, 10 uM, 30 min; active = over 0.2 and 3.5 SD of the protein, either way, in both replicates (recomputed)
ZNF672 = ZNF672 (UniProt Q499Z4)
How it was run: (§1)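 Quantification of soluble protein used TMTpro 16plex LC-MS/MS, with channel sums equalised. Samples were the supernatant after 21,000xg for 90 min of pooled aliquots from K562 cells (2×10^6 cells/mL) treated with 10 μM compound for 30 min, heated for 3 min over 48°C-58°C, and extracted in PBS with 0.5% NP-40 at 4°C. Values, from duplicates, describe thermal stability against control samples on a log2 fold-change scale.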

ZNF691 = ZNF691 (UniProt Q5VV52)
How it was run: as §1

ZNF696 = ZNF696 (UniProt Q9H7X3)
How it was run: as §1

ZNF706 = ZNF706 (UniProt Q9Y5V0)
How it was run: as §1

ZNF74 isoform 5 = ZNF74 isoform 5 (UniProt Q16587)
How it was run: as §1

ZNF768 = ZNF768 (UniProt Q9H5H4)
How it was run: as §1

ZNF740 = ZNF740 (UniProt Q8NDX6)
How it was run: as §1

ZNF669 = ZNF669 (UniProt Q96BR6)
How it was run: as §1

ZNF688 = ZNF688 (UniProt P0C7X2)
How it was run: as §1

Measured: log2 fold change

CS(=O)(=O)N1CCN(Cc2cc3nc(-c4cccc5[nH]ncc45)nc(N4CCOCC4)c3s2)CC1 [pictilisib]
inactive: ZNF672 = 0 | ZNF691 = 0.041 | ZNF696 = -0.01 | ZNF706 = -0.118 | ZNF74 isoform 5 = -0.137 | ZNF768 = -0.014

C=CC(=O)N1CCC[C@@H](n2nc(-c3ccc(Oc4ccccc4)cc3)c3c(N)ncnc32)C1 [ibrutinib]
inactive: ZNF672 = 0.045 | ZNF691 = 0.086 | ZNF706 = 0.006 | ZNF74 isoform 5 = 0.026 | ZNF740 = -0.015 | ZNF768 = -0.004

Cc1cc(Nc2cc(CN3CCOCC3)c3nc(C)c(Cc4ccc(Cl)cc4F)n3n2)n[nH]1 [gandotinib]
inactive: ZNF672 = 0.251 | ZNF691 = 0.062 | ZNF696 = 0.283 | ZNF706 = -0.078 | ZNF74 isoform 5 = -0.063 | ZNF768 = 0.112

CN(CCOc1ccc(C[C@@H]2SC(=O)NC2=O)cc1)c1ccccn1 (racemic) [rosiglitazone]
inactive: ZNF672 = -0.034 | ZNF691 = -0.064 | ZNF706 = 0.007 | ZNF74 isoform 5 = -0.026 | ZNF740 = 0.158 | ZNF768 = -0.122

Cc1cccc(CC(=O)N2CCc3c2ccc(-c2cn(C)c4ncnc(N)c24)c3F)n1
inactive: ZNF672 = 0.061 | ZNF691 = -0.069 | ZNF696 = 0.008 | ZNF706 = 0.081 | ZNF74 isoform 5 = 0.033 | ZNF768 = -0.031

Cc1nc(Nc2n[nH]c3c2CN(C(=O)N[C@H](CN(C)C)c2ccccc2)C3(C)C)c2sccc2n1
inactive: ZNF672 = 0.029 | ZNF691 = 0.041 | ZNF706 = -0.014 | ZNF74 isoform 5 = 0.029 | ZNF740 = -0.065 | ZNF768 = 0

COC(=O)N[C@@H](C)CNc1nccc(-c2cn(C(C)C)nc2-c2cc(Cl)cc(NS(C)(=O)=O)c2F)n1 [encorafenib]
inactive: ZNF672 = 0.101 | ZNF691 = -0.022 | ZNF706 = -0.018 | ZNF74 isoform 5 = -0.089 | ZNF740 = -0.074 | ZNF768 = 0.104

Cc1ccc(Sc2cncc3sc(C(N)=O)cc23)cc1
inactive: ZNF669 = -0.111 | ZNF688 = -0.026 | ZNF691 = 0.003 | ZNF706 = -0.01 | ZNF74 isoform 5 = 0.193 | ZNF740 = 0.033 | ZNF768 = -0.075

O=C(CCCCCCNC(=O)c1cnc(N(c2ccccc2)c2ccccc2Cl)nc1)NO [citarinostat]
inactive: ZNF672 = -0.047 | ZNF691 = 0.003 | ZNF706 = -0.016 | ZNF74 isoform 5 = 0.011 | ZNF740 = -0.008 | ZNF768 = -0.032

CC1=C(C(=O)Nc2cc3cn[nH]c3cc2F)C(c2ccc(C(F)(F)F)cc2)CC(=O)N1 (stereo not drawn)
inactive: ZNF672 = -0.084 | ZNF691 = -0.061 | ZNF706 = 0.021 | ZNF74 isoform 5 = 0.004 | ZNF740 = 0.043 | ZNF768 = 0.022

Cc1cn(-c2cc(NC(=O)c3ccc(C)c(Nc4nccc(-c5cccnc5)n4)c3)cc(C(F)(F)F)c2)cn1 [nilotinib]
inactive: ZNF672 = -0.047 | ZNF691 = 0.022 | ZNF706 = 0.008 | ZNF74 isoform 5 = -0.095 | ZNF740 = -0.164 | ZNF768 = -0.024

Cc1ccc(NC(=O)c2ccc(CN3CC[C@H](N(C)C)C3)c(C(F)(F)F)c2)cc1Nc1nccc(-c2cncnc2)n1 [bafetinib]
inactive: ZNF672 = 0.157 | ZNF691 = -0.002 | ZNF706 = -0.08 | ZNF74 isoform 5 = 0.004 | ZNF740 = -0.069 | ZNF768 = 0.084

c1cc(OCCN2CCCCC2)cc(-c2n[nH]c3ccc(-c4nnc[nH]4)cc23)c1
inactive: ZNF672 = -0.12 | ZNF691 = -0.074 | ZNF706 = -0.023 | ZNF74 isoform 5 = 0.138 | ZNF740 = 0.079 | ZNF768 = -0.285

CS(=O)(=O)CCNCc1ccc(-c2ccc3ncnc(Nc4ccc(OCc5cccc(F)c5)c(Cl)c4)c3c2)o1 [lapatinib]
inactive: ZNF669 = -0.074 | ZNF688 = -0.095 | ZNF691 = -0.002 | ZNF706 = -0.058 | ZNF74 isoform 5 = 0.06 | ZNF740 = -0.185 | ZNF768 = 0.128

CC[C@@H]1C(=O)N(C)c2cnc(Nc3ccc(C(=O)N[C@H]4CC[C@H](N5CCN(CC6CC6)CC5)CC4)cc3OC)nc2N1C(C)C [volasertib]
inactive: ZNF669 = 0.104 | ZNF688 = 0.05 | ZNF691 = 0.077 | ZNF706 = -0.065 | ZNF74 isoform 5 = -0.303 | ZNF740 = 0.067 | ZNF768 = 0.389

CC[C@H](C)n1cc(C)c2c(C(=O)NCc3c(C)cc(C)[nH]c3=O)cc(-c3ccc(N4CCNCC4)nc3)cc21
inactive: ZNF672 = 0.06 | ZNF691 = 0.029 | ZNF706 = -0.039 | ZNF74 isoform 5 = 0.05 | ZNF740 = -0.077 | ZNF768 = 0.011

CNC(=O)c1ccccc1Nc1nc(Nc2ccc(N3CCOCC3)cc2OC)ncc1Cl
inactive: ZNF672 = -0.12 | ZNF691 = -0.02 | ZNF706 = -0.019 | ZNF74 isoform 5 = -0.174 | ZNF768 = 0.003

CCn1cc(-c2ccnc3[nH]c(-c4cccc(CN(C)C)c4)cc23)c(-c2ccc(NC(=O)N(C)C)cc2)n1
inactive: ZNF672 = -0.037 | ZNF691 = 0 | ZNF696 = -0.002 | ZNF706 = 0.023 | ZNF74 isoform 5 = 0.077 | ZNF768 = 0.183

Cc1ncc(-c2ccnc(Nc3ccc(S(C)(=O)=O)cc3)n2)n1C(C)C
inactive: ZNF672 = 0.089 | ZNF691 = -0.043 | ZNF706 = -0.033 | ZNF74 isoform 5 = -0.078 | ZNF740 = -0.053 | ZNF768 = -0.076

CC[C@@H]1C(=O)N(C)c2cnc(Nc3ccc(C(=O)NC4CCN(C)CC4)cc3OC)nc2N1C1CCCC1
inactive: ZNF672 = 0.202 | ZNF691 = 0.056 | ZNF706 = 0.025 | ZNF74 isoform 5 = -0.192 | ZNF740 = 0.001 | ZNF768 = 0.127

O=C1NC(=O)/C(=C\c2ccc3nccnc3c2)S1
inactive: ZNF672 = -0.033 | ZNF691 = 0.002 | ZNF706 = 0.025 | ZNF74 isoform 5 = -0.05 | ZNF740 = -0.077 | ZNF768 = -0.031

C#Cc1cccc(Nc2ncnc3cc(OCCOC)c(OCCOC)cc23)c1 [erlotinib]
inactive: ZNF672 = 0.098 | ZNF691 = -0.046 | ZNF706 = 0.047 | ZNF74 isoform 5 = -0.019 | ZNF768 = -0.178

COc1cc2ncnc(Nc3ccc(F)c(Cl)c3)c2cc1OCCCN1CCOCC1 [gefitinib]
inactive: ZNF672 = -0.196 | ZNF691 = 0.013 | ZNF706 = 0.005 | ZNF74 isoform 5 = 0.061 | ZNF740 = -0.016 | ZNF768 = -0.096

O=C(CCCCCCC(=O)Nc1ccccc1)NO [vorinostat]
inactive: ZNF672 = 0.28 | ZNF691 = -0.016 | ZNF696 = 0.086 | ZNF706 = 0.033 | ZNF74 isoform 5 = -0.036 | ZNF768 = -0.247

CNCc1ccc(-c2[nH]c3cc(F)cc4c3c2CCNC4=O)cc1 [rucaparib]
inactive: ZNF672 = 0.091 | ZNF691 = 0.126 | ZNF706 = 0.034 | ZNF74 isoform 5 = 0.017 | ZNF740 = -0.044 | ZNF768 = 0.264

CN1CCC(CNc2ccc3ncc(-c4cccc(OC(F)(F)F)c4)n3n2)CC1
inactive: ZNF672 = -0.151 | ZNF691 = 0.091 | ZNF696 = 0.008 | ZNF706 = 0.047 | ZNF74 isoform 5 = 0.117 | ZNF768 = 0.2

CCN(CCCOc1ccc2c(Nc3cc(CC(=O)Nc4cccc(F)c4)[nH]n3)ncnc2c1)CCOP(=O)(O)O [barasertib]
inactive: ZNF672 = -0.074 | ZNF691 = -0.06 | ZNF706 = 0.039 | ZNF74 isoform 5 = 0.055 | ZNF740 = -0.026 | ZNF768 = -0.111

c1cn2cc(-c3ccc4cn[nH]c4c3)nc(Nc3ccc(N4CCOCC4)cc3)c2n1 [entospletinib]
inactive: ZNF672 = -0.044 | ZNF691 = -0.03 | ZNF706 = 0.02 | ZNF74 isoform 5 = -0.081 | ZNF740 = -0.03 | ZNF768 = 0.151

Cn1cc(-c2ccc3nnc(C(F)(F)c4ccc5ncccc5c4)n3n2)cn1
inactive: ZNF672 = -0.034 | ZNF691 = -0.138 | ZNF706 = 0.017 | ZNF740 = -0.019 | ZNF768 = -0.058

NC(=O)c1ccc2nc(-c3ccc(Oc4ccc(Cl)cc4)cc3)[nH]c2c1
inactive: ZNF672 = 0.06 | ZNF691 = 0.046 | ZNF706 = -0.012 | ZNF74 isoform 5 = -0.018 | ZNF768 = -0.061

NC1(c2ccc(-c3nc4ccn5c(=O)[nH]nc5c4cc3-c3ccccc3)cc2)CCC1
inactive: ZNF672 = -0.143 | ZNF691 = 0.098 | ZNF706 = 0.073 | ZNF740 = 0.167 | ZNF768 = 0.171

For convenience, 2 of the compounds above.
COC(=O)N[C@@H](C)CNc1nccc(-c2cn(C(C)C)nc2-c2cc(Cl)cc(NS(C)(=O)=O)c2F)n1 [encorafenib]
inactive: ZNF672 = 0.101 | ZNF691 = -0.022 | ZNF706 = -0.018 | ZNF74 isoform 5 = -0.089 | ZNF740 = -0.074 | ZNF768 = 0.104

Cc1ccc(Sc2cncc3sc(C(N)=O)cc23)cc1
inactive: ZNF669 = -0.111 | ZNF688 = -0.026 | ZNF691 = 0.003 | ZNF706 = -0.01 | ZNF74 isoform 5 = 0.193 | ZNF740 = 0.033 | ZNF768 = -0.075

Following part:

Cc1ccc(NC(=O)c2cccc(N(C)C)c2)cc1NC(=O)c1ccc(O)cc1
inactive: ZNF672 = 0.112 | ZNF691 = 0.018 | ZNF706 = 0.067 | ZNF740 = 0.067 | ZNF768 = 0.021

COc1cc(Nc2ncc3c(n2)-c2ccc(Cl)cc2C(c2c(F)cccc2OC)=NC3)ccc1C(=O)O [alisertib]
inactive: ZNF672 = -0.142 | ZNF691 = 0.025 | ZNF706 = 0.008 | ZNF740 = -0.171 | ZNF768 = -0.165

CNc1nc(-c2ccc3c(N)n[nH]c3c2)cc(N2C[C@@H](C(=O)NC3CCCCC3)CC[C@H]2C)n1
inactive: ZNF672 = 0.202 | ZNF691 = -0.019 | ZNF706 = -0.121 | ZNF768 = 0.017

Cn1cc(-c2ccc3c(c2)CCN3C(=O)Cc2cccc(C(F)(F)F)c2)c2c(N)ncnc21
inactive: ZNF672 = -0.171 | ZNF691 = 0 | ZNF706 = -0.01 | ZNF740 = -0.094 | ZNF768 = -0.419
